# According to PMC9445589 (Frontiers in Microbiology, 2022):
# Non-standard residues stand in square brackets, D forms with d. Residues, ends and D or L forms follow the SMILES beside them. Aib = CC(C)(N)C(=O)O
# Tested on: A. baumannii YQ4 transcriptome
# Assay: RNA-seq analysis, differentially expressed genes
# Format: cell-based, Acinetobacter baumannii
# Conditions: 1/4 MIC (4 μg/ml), M9 minimal medium
compound,measurement,value
"CC(=O)N[C@@H](C)C(=O)N[C@@H](CO)C(=O)NC(C)(C)C(=O)N[C@@H](CC(C)C)C(=O)N[C@@H](CCCNC(=N)N)C(=O)N[C@@H](CCCCN)C(=O)N[C@@H](CC(C)C)C(=O)NC(C)(C)C(=O)N[C@@H](CCCCN)C(=O)N[C@@H](CCCNC(=N)N)C(=O)N[C@@H](CC(C)C)C(=O)N[C@@H](CC(C)C)C(N)=O [COG1410, acetyl-AS-Aib-LRKL-Aib-KRLL-amide] (Ac-AS[Aib]LRKL[Aib]KRLL-NH2)",significantly differentially expressed genes (at least 2-fold change),92
